Positions count from the first letter of the chain named. No constants are given. Whether binding was seen depends on the method and setting. In cells and extracts the contact can be indirect. A result given as binding can be weak or reduced; the word gives no strength. For some assays here: Sequences can lack the tags named with a protein.
Key:
Assay in all cases: co-IP; lysates of HeLa cells expressing FHS-tagged TNRC6A-SD fragments (collected 24 h after transfection) or full-length TNRC6A (36 h), anti-FLAG antibody beads 2 h at 4 °C, lysis buffer with 140 mM NaCl, wash buffer with 300 mM NaCl and 0.5% NP40; endogenous CNOT1, CNOT9 and PABP detected by Western …
[1] = target: T1, FHS-TNRC6A-SD-S1616A/S1691A (human) (UniProt Q8NDV7)
T1 sequence: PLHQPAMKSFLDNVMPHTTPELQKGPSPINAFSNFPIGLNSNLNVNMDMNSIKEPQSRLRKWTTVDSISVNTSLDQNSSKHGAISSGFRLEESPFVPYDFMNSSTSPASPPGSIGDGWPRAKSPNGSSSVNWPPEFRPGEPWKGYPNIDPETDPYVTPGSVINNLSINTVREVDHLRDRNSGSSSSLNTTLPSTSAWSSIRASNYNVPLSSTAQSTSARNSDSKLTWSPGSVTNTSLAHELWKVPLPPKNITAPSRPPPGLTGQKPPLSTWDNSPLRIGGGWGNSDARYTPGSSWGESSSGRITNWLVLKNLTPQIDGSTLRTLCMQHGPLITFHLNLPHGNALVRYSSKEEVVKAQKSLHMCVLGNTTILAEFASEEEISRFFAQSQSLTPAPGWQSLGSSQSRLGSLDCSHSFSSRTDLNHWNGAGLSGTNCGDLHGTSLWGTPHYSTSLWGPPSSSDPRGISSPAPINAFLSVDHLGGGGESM

[2] = target: T2, FLAG-HA-SBP (FHS)-tagged TNRC6A-SD-WT (human) (UniProt Q8NDV7)
T2 sequence: T1 sequence with A393S, A468S

[3] = target: T3, FHS-TNRC6A-SD-S1616D/S1691D (human) (UniProt Q8NDV7)
T3 sequence: T1 sequence with A393D, A468D

[4] = target: T4, FHS-TNRC6A-SD-S1332A/S1346A (human) (UniProt Q8NDV7)
T4 sequence: T1 sequence with S109A, S123A, A393S, A468S

[5] = target: T5, FHS-TNRC6A-SD-S1332D/S1346D (human) (UniProt Q8NDV7)
T5 sequence: T1 sequence with S109D, S123D, A393S, A468S

binding [1]: binds | binding [2]: binds | binding [3]: binds | binding [4]: binds | binding [5]: binds
Substance: poly(A)-binding protein (PABP) (human (endogenous in HeLa))

Source: publication PMC7917804
